{"source": "patent US20250109127A1", "about": "“METHODS OF USE OF PHENOXYPROPYLAMINE COMPOUNDS TO TREAT DEPRESSION” (Minerva Neurosciences, Inc., priority 2013, published 2025)", "key": {"[1]": {"test_system": "DOPAC release in the rat prefrontal cortex", "assay": "Microdialysis: DOPAC release in prefrontal cortex after I.P. administration", "format": "in vivo", "settings": "hydrochloride; for DOPAC release, individual animals: 3 mg/kg IP, per animal R#15,16,21,22,27,28,09,10", "description": "(§1) The aim of the study was to evaluate, using microdialysis, the effects of an intraperitoneal (I.P.) administration in rats of three different doses of SON-117 on dopamine and its metabolites, serotonin and its metabolite (5-HIAA), and norepinephrine levels in prefrontal cortex.\n(§2) Thirty-two adult male Wistar rats were used for the whole study (4 groups of eight animals planned for the study, Table 1).\n(§3) Surgery was performed on rats weighing about 300 g at the beginning of the experiments. Rats were anaesthetized with Ketamine (50 mg/kg) & Xylazine (15 mg/kg) by intramuscular administration. The animals were placed in a stereotaxic apparatus in the flat-skull position at a constant setting of −3.3 mm between ear bars and the incisor bar. The animals were treated with a local anesthesic (xylocaine 1%, Astra Zeneca) and an analgesic (Temgesic, from Schering Plough, 0.05 mg/kg, s.c.). A rostrocaudal midline incision was made with a lancet to expose the dorsal skull surface. The “stereotaxic zero” was defined by the Bregma in accordance with Paxinos and Watson's atlas (1986). A hole was drilled in the skull with a drill and the meninges were pierced with a sterile needle to implant a CMA12 guide cannula which later received the dialysis probe.\n(§4) Coordinates used for implanting guide cannula in prefrontal cortex from Bregma were anteroposterior 3.7 mm, mediolateral 0.8 mm, and dorsoventral −2 mm (top of the probe was at −5 mm). The guide cannula was fixed to the skull with two stainless steel screws (1.88 mm outside diameter) anchored. An application of dental cement was added. A plastic collar allowed each animal to be tethered to a Swivel assembly of the CMA 120 awake animal system. Following surgery, rats were kept in individual cages and allowed to recover for a minimum of 3-5 days before the experimentation. The rats were handled and put in plastic bowl for 10 min at least every day to habituate the animals to their new environment for the dialysis. An I.P. administration with saline was also performed every day.\n(§5) Dialysis probes (CMA12/3 mm, membrane, 20 kD cut-off, Carnegie Medicine, Stockholm, Sweden), were carefully washed before inserting into the guide cannula. The wash was performed with the artificial cerebrospinal fluid (aCSF) medium (NaCl 147 mM, KCl 2.7 mM, CaCl2 1.2 mM, MgCl2 0.85 mM) at room temperature. The dialysis system was then equilibrated at 20° C. at a perfusion rate of 1 μl/min with a Carnegie pump (CMA100). All catheters (FEP tubing, internal volume of 1.2 μl/10 cm, and tubing adaptors) used for microdialysis were treated in the same conditions.\n(§6) The probes duly prepared were inserted into the guide cannula and the CMA120 Swivel assembly secured to the animal using a plastic collar. Flow through the dialysis probe with aCSF was maintained at a rate of 1 μl/min during the whole experimentation. The first four fractions (corresponding to 2 hours) were discarded to avoid the effects of parenchymal disturbance and to ensure that an approximate steady-state level was reached. Fractions were then collected over a period of 8.5 h during which time the animals remained quiet. The dialysates were automatically collected with an autosampler (microfraction collector CMA 140, Carnegie Medicin) and stored at −80° C. until analysis. […] Perfusion was then maintained for 7 hours with aCSF. The dialysates (30 μl) were collected into 300 μl vials, transferred into dry ice and then kept frozen (−80° C.) until analysis. Frozen samples were shipped to a partner for analysis. At the end of the microdialysis study, a PBS with colored ink was perfused through the probe in order to visualize the dialyzed area.\n(§7) Catecholamine assay: Concentrations of dopamine, DOPAC, HVA, 5-HIAA, 5-HT, and norepinephrin were determined for each sample by HPLC coupled with electrochemical detection."}, "[2]": {"test_system": "HVA release in the rat prefrontal cortex", "assay": "Microdialysis: HVA release in prefrontal cortex after I.P. administration", "format": "in vivo", "settings": "hydrochloride; for HVA (% of respective basal), individual animal: 0.1 mg/kg I.P., c2-c9 = R#13,14,20,19,25,26,31,32; for HVA release, individual animals: 0.3 mg/kg I.P., one column per animal R#11,12,18,23,29,30,17,24; for HVA release (% of basal levels) measured in dialysates: SON-117 3 mg/kg IP, individual animals, 3 mg/kg", "description": "as §1, §2, §3, §4, §5, §6, §7"}, "[3]": {"settings": "T-30 min-T0 (before administration)"}, "[4]": {"settings": "T-1 h 30-T-1 h (before administration)"}, "[5]": {"settings": "T-1 h-T-30 min (before administration)"}}, "note": "“And” between values parts separate entries of the source, which are not always exact repeats. Equal values may be shown once. Where a name gives a salt, the structure may show the parent alone. Further values from the same series stand in other lists.", "data": [{"smiles": "Cc1nnc(-c2cc3c(OC[C@@H](O)CN4CCC(c5ccc(Cl)c(Cl)c5)CC4)cccc3o2)o1", "note": "[SON-117, (S)-1-(4-(3,4-dichlorophenyl)piperidino)-3-(2-(5-methyl-1,3,4-oxadiazol-2-yl)benzo(b)furan-4-yloxy)-2-propanol hydrochloride]", "values": [{"measurement": "DOPAC (% of respective basal), individual animal", "setting": "[1]; 0.3 mg/kg I.P., T-1 h-T-30 min (before administration), c2-c9 = R#11,12,18,23,29,30,17,24", "value": "107.67 % of respective basal and 99.20 % of respective basal and 102.47 % of respective basal and 101.65 % of respective basal and 106.59 % of respective basal and 97.67 % of respective basal and 113.99 % of respective basal and 94.02 % of respective basal"}, {"measurement": "DOPAC release, individual animals", "setting": "[1]; T0-T30 min", "value": "85.79 % of respective basal and 105.77 % of respective basal and 74.34 % of respective basal and 93.11 % of respective basal and 75.08 % of respective basal and 96.85 % of respective basal and 86.07 % of respective basal and 86.69 % of respective basal"}, {"measurement": "DOPAC release, individual animals", "setting": "[1]; T6 h 30-T7 h", "value": "99.49 % of respective basal and 88.80 % of respective basal and 121.72 % of respective basal"}, {"measurement": "DOPAC release, individual animals", "setting": "[1]; [3]", "value": "99.28 % of respective basal and 98.98 % of respective basal and 93.18 % of respective basal and 91.06 % of respective basal and 89.17 % of respective basal and 96.24 % of respective basal and 96.28 % of respective basal and 94.84 % of respective basal"}, {"measurement": "DOPAC release, individual animals", "setting": "[1]; [4]", "value": "98.28 % of respective basal and 101.07 % of respective basal and 105.94 % of respective basal and 105.34 % of respective basal and 104.19 % of respective basal and 108.69 % of respective basal and 89.56 % of respective basal and 98.05 % of respective basal"}, {"measurement": "DOPAC release, individual animals", "setting": "[1]; [5]", "value": "102.48 % of respective basal and 100.03 % of respective basal and 100.88 % of respective basal and 103.59 % of respective basal and 106.64 % of respective basal and 95.09 % of respective basal and 114.18 % of respective basal and 107.12 % of respective basal"}, {"measurement": "HVA (% of respective basal), individual animal", "setting": "[2]; T0-T30 min", "value": "121.40 % of respective basal and 123.36 % of respective basal and 91.60 % of respective basal and 94.33 % of respective basal and 84.55 % of respective basal and 93.95 % of respective basal"}, {"measurement": "HVA (% of respective basal), individual animal", "setting": "[2]; T6 h 30-T7 h", "value": "88.04 % of respective basal and 148.73 % of respective basal and 123.65 % of respective basal and 63.53 % of respective basal"}, {"measurement": "HVA (% of respective basal), individual animal", "setting": "[2]; [3]", "value": "96.50 % of respective basal and 104.97 % of respective basal and 102.90 % of respective basal and 134.09 % of respective basal and 91.26 % of respective basal and 104.17 % of respective basal and 88.35 % of respective basal and 90.91 % of respective basal"}, {"measurement": "HVA (% of respective basal), individual animal", "setting": "[2]; [4]", "value": "107.21 % of respective basal and 96.85 % of respective basal and 93.64 % of respective basal and 80.61 % of respective basal and 99.87 % of respective basal and 85.05 % of respective basal and 108.5 % of respective basal and 111.3 % of respective basal"}, {"measurement": "HVA (% of respective basal), individual animal", "setting": "[2]; [5]", "value": "96.32 % of respective basal and 98.16 % of respective basal and 103.43 % of respective basal and 85.28 % of respective basal and 108.88 % of respective basal and 110.79 % of respective basal and 103.16 % of respective basal and 97.79 % of respective basal"}, {"measurement": "HVA release, individual animals", "setting": "[2]; T0-T30 min", "value": "90.89 % of respective basal and 66.19 % of respective basal and 85.70 % of respective basal and 97.19 % of respective basal and 87.89 % of respective basal and 113.36 % of respective basal and 220.95 % of respective basal and 94.31 % of respective basal"}, {"measurement": "HVA release, individual animals", "setting": "[2]; T6 h 30-T7 h", "value": "79.61 % of respective basal and 100.92 % of respective basal"}, {"measurement": "HVA release, individual animals", "setting": "[2]; [3]", "value": "95.34 % of respective basal and 96.06 % of respective basal and 96.23 % of respective basal and 99.79 % of respective basal and 99.29 % of respective basal and 91.13 % of respective basal and 128.40 % of respective basal and 104.31 % of respective basal"}, {"measurement": "HVA release, individual animals", "setting": "[2]; [4]", "value": "109.98 % of respective basal and 103.62 % of respective basal and 100.80 % of respective basal and 105.27 % of respective basal and 100.33 % of respective basal and 94.99 % of respective basal and 43.32 % of respective basal and 103.83 % of respective basal"}, {"measurement": "HVA release, individual animals", "setting": "[2]; [5]", "value": "94.68 % of respective basal and 100.31 % of respective basal and 102.96 % of respective basal and 94.93 % of respective basal and 100.41 % of respective basal and 133.88 % of respective basal and 128.33 % of respective basal and 91.86 % of respective basal"}, {"measurement": "HVA release (% of basal levels) measured in dialysates", "setting": "[2]; T0-T30 min", "value": "78.86 % of basal levels and 79.92 % of basal levels and 77.73 % of basal levels and 103.05 % of basal levels and 87.40 % of basal levels and 98.58 % of basal levels and 122.04 % of basal levels and 107.12 % of basal levels"}, {"measurement": "HVA release (% of basal levels) measured in dialysates", "setting": "[2]; T6 h 30-T7 h", "value": "86.52 % of basal levels and 109.35 % of basal levels and 138.98 % of basal levels"}, {"measurement": "HVA release (% of basal levels) measured in dialysates", "setting": "[2]; T-30 min-T0 (pre-administration)", "value": "97.56 % of basal levels and 81.45 % of basal levels and 96.59 % of basal levels and 96.35 % of basal levels and 102.37 % of basal levels and 101.14 % of basal levels and 97.08 % of basal levels and 108.72 % of basal levels"}, {"measurement": "HVA release (% of basal levels) measured in dialysates", "setting": "[2]; T-1 h 30-T-1 h (pre-administration)", "value": "100.28 % of basal levels and 104.53 % of basal levels and 106.79 % of basal levels and 95.37 % of basal levels and 95.07 % of basal levels and 104.70 % of basal levels and 98.85 % of basal levels and 88.50 % of basal levels"}, {"measurement": "HVA release (% of basal levels) measured in dialysates", "setting": "[2]; T-1 h-T-30 min (pre-administration)", "value": "102.14 % of basal levels and 114.02 % of basal levels and 96.62 % of basal levels and 108.28 % of basal levels and 102.56 % of basal levels and 94.16 % of basal levels and 104.10 % of basal levels and 102.75 % of basal levels"}]}]}
